# Results as given in the supplement of paper PMC4635364.
# This is one part of the list. Repeats in this data set agree poorly, so a single value says little.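 Cells: ReNCell VM human fetal ventral-midbrain neural progenitors, differentiated mitogen-free. Blinded raters compared doublecortin-stained (early neurons) or tyrosine hydroxylase-stained (dopaminergic neurons) images with untreated wells, where 0 means no change. After repeats and both raters were averaged, compounds scoring 2 or above became hits for retesting.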
# Experiments:
# [1] = system: ReNCell VM; test: neuronal differentiation score (DCX+ cell fraction vs untreated, manual image score) (score (-3 to 3)); higher = more neuronal differentiation; conditions: 2 uM, 2 weeks
# [2] = system: ReNCell VM; test: dopaminergic neuron differentiation score (TH+ cell fraction vs untreated, manual image score) (score (0 to 3)); higher = more TH+ dopaminergic neuron differentiation; conditions: 2 uM, 4 weeks, BDNF 10 ng/ml + GDNF 10 ng/ml
smiles,measurement,setting,value
COc1cc2c(cc1OC)C(=O)Cc1ccc3c(c1CN(C)CC2)OCO3 [cryptopine],neuronal differentiation score,[1]; library: Natural,inactive: 1
same,dopaminergic neuron differentiation score,[2]; library: Natural,inactive: 0
Clc1ccc(C(Cn2ccnc2)OCc2ccsc2Cl)c(Cl)c1 (configuration not stated) [Tioconazole],neuronal differentiation score,[1]; library: Prestwick,inactive: 0
same,dopaminergic neuron differentiation score,[2]; library: Prestwick,inactive: 0
O=C(CCc1ccc(O)cc1)c1c(O)cc(O)cc1O[C@@H]1OC(CO)[C@@H](O)[C@@H](O)C1O (some centres not stated),neuronal differentiation score,[1]; library: Spectrum,inactive: 0
same,dopaminergic neuron differentiation score,[2]; library: Spectrum,inactive: 0
COC(=O)Nc1ccc2[nH]cc(CCNC(C)=O)c2c1,neuronal differentiation score,[1]; library: Tocriscreen,inactive: 0
same,dopaminergic neuron differentiation score,[2]; library: Tocriscreen,inactive: 0
CC[C@]1(O)C[C@H]2CN(CCc3c([nH]c4ccccc34)[C@@](C(=O)OC)(c3cc4c(cc3OC)N(C=O)[C@H]3[C@@](O)(C(=O)OC)[C@H](OC(C)=O)[C@]5(CC)C=CCN6CC[C@]43[C@@H]65)C2)C1,neuronal differentiation score,[1]; library: Spectrum,inactive: 0
same,dopaminergic neuron differentiation score,[2]; library: Spectrum,inactive: 0
CCC(CCC(C)C1CCC2C3CCC4CC(O)CCC4(C)C3CCC12C)C(C)C (configuration not stated),neuronal differentiation score,[1]; library: Spectrum,inactive: 0
same,dopaminergic neuron differentiation score,[2]; library: Spectrum,inactive: 0
O=C(CCCCCCC(=O)Nc1ccccc1)NO [Vorinostat],neuronal differentiation score,[1]; library: Prestwick,inactive: 0
same,dopaminergic neuron differentiation score,[2]; library: Prestwick,inactive: 0
O=C(O)CCNC(=O)c1ccc(/N=N/c2ccc(O)c(C(=O)O)c2)cc1,neuronal differentiation score,[1]; library: Spectrum,inactive: 0
same,dopaminergic neuron differentiation score,[2]; library: Spectrum,inactive: 0
CC[N+]1(C)C2CCC1CC(OC(=O)C1CCC(C(=O)OC3CC4CCC(C3)[N+]4(C)CC)(c3ccccc3)c3ccccc31)C2 (stereo not drawn) [beta- Belladonnine dichloroethylate],neuronal differentiation score,[1]; library: Phytochemical,inactive: 0
same,dopaminergic neuron differentiation score,[2]; library: Phytochemical,inactive: 0
COc1ccc2cc(CCC(C)=O)ccc2c1 [Nabumetone],neuronal differentiation score,[1]; library: Prestwick,inactive: 0
same,dopaminergic neuron differentiation score,[2]; library: Prestwick,inactive: 0
NC[C@H]1O[C@H](O[C@H]2[C@H](O)[C@@H](O[C@H]3O[C@H](CO)[C@@H](O)[C@H](N)[C@H]3O)[C@H](N)C[C@@H]2N)[C@H](N)C[C@@H]1O,neuronal differentiation score,[1]; library: Spectrum,inactive: 0
same,dopaminergic neuron differentiation score,[2]; library: Spectrum,inactive: 0

# An excerpt of these results, with bars between the fields.
smiles | measurement | setting | value
Clc1ccc(C(Cn2ccnc2)OCc2ccsc2Cl)c(Cl)c1 (configuration not stated) [Tioconazole] | neuronal differentiation score | [1]; library: Prestwick | inactive: 0
CC[N+]1(C)C2CCC1CC(OC(=O)C1CCC(C(=O)OC3CC4CCC(C3)[N+]4(C)CC)(c3ccccc3)c3ccccc31)C2 (stereo not drawn) [beta- Belladonnine dichloroethylate] | dopaminergic neuron differentiation score | [2]; library: Phytochemical | inactive: 0
